The values that follow are results of earlier work, collected in patent US12151062B2, “Compositions and devices to administer pharmaceutical compositions nasally” (BOARD OF REGENTS, THE UNIVERSITY OF TEXAS SYSTEM, priority 2016, dated 2024).

The conditions of the series: chitosan nanosuspension vs donepezil suspension; rats.

`COc1cc2c(cc1OC)C(=O)C(CC1CCN(Cc3ccccc3)CC1)C2` (centres unmarked) [Donepezil]: the bioavailability result is recorded as “significantly higher bioavailability” and the “maximum concentration in the brain” value is “significantly higher”.
